Publication PMC6274753
These are yes or no findings as the source states them, for the method shown. Binding seen in cells or lysates may run through a third protein. A result given as binding can be weak or reduced; the word gives no strength. Sequences can lack the tags named with a protein.

Target: T1, FLAG-TBC1D21 (UniProt Q8IYX1)
T1 sequence: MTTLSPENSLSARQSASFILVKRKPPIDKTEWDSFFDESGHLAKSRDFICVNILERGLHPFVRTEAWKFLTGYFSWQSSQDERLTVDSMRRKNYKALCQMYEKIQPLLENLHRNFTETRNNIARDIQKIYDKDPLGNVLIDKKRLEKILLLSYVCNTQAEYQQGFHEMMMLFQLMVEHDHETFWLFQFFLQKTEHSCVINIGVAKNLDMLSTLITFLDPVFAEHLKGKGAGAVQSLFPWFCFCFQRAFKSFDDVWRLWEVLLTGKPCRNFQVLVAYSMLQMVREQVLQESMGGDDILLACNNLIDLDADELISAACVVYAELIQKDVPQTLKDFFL
Assay: co-IP; lysate (4 mg in 1 mL) of NT2D1 cells co-transfected with pFLAG-TBC1D21 and pEGFP-Rap1; precleared with protein A/G beads; anti-FLAG antibody or control IgG overnight at 4 °C; washed twice with PBS; immunoblot with anti-FLAG and anti-EGFP

Rap1-GFP
binding: binds
